At least one compound was matched to its structure with a doubt left.
Experiments:
mTOR = target: T1, mTOR (Homo sapiens, UniProt P42345); test: In vitro kinase assay for mTOR activity, endogenous mTOR immunoprecipitates, GST-S6K1 substrate; type: biochemical; conditions: 20 μM inhibitor, added 10 minutes prior to kinase assay
T1 construct: the kinase activity of immunoprecipitates of endogenous mTOR depends on the presence of mTOR; endogenous in cells; host or cells: HEK293T
Description: FIG. 8A is a gel showing deprivation of amino acids, leucine, or glucose increases the stability of raptor-mTOR complex and decreases mTOR kinase activity, effects reversed by stimulation with leucine or glucose. HEK293T cells were incubated for 50 minutes in RPMI lacking amino acids (−amino acids), leucine (−leucine), or glucose (−glucose) or left untreated (control). Duplicate plates of cells deprived of leucine or glucose were stimulated for 10 minutes with 52 μg/ml leucine (−leu+leu) or 11 mM glucose (−gluc+gluc), respectively. Cells were lysed, anti-mTOR immunoprecipitates prepared, and mTOR kinase activity determined with in vitro kinase assays containing ATP-[γ-^32P] and a GST-S6K1 fusion protein (Burnett et al., PNAS 95:1432-1437 (1998)). Kinase reactions were resolved by SDS-PAGE, proteins transferred to PVDF, ^32P-incorporation into GST-S6K1 detected with autoradiography (third panel from top) and levels of mTOR (top panel) and raptor (middle panel) determined by immunoblotting. Western blot analyses of cell lysates used to prepare mTOR immunoprecipitates showing effects of nutrient conditions on the phosphorylation state and gel mobility of S6K1 in vivo (bottom two panels). […]

[1] = target: T2, recombinant, myc-tagged mTOR (Rattus norvegicus, UniProt P42346); test: In vitro kinase assay with recombinant myc-tagged mTOR; type: biochemical, human; conditions: 20 μM inhibitor
T2 construct: Myc-tagged full-length mTOR, its indicated fragments or γ-tubulin were co-expressed in HEK293T cells; made in house; host or cells: transfected HEK293T cells (general transfection method b177; not restated for this assay)

HEK293T cells = test: Regrowth after confluence experiment (cell size); type: cell-based, human; conditions: cell volumes 1, 2, 3 days after dilution; 20 nM rapamycin at 1 day after dilution
S6K1 = test: In vivo phosphorylation state of S6K1 (T389) in cell lysates by western blot; type: cell-based, human; conditions: actively growing HEK293T; rapamycin 48 hours or siRNA transfection

Row | Structure (SMILES) | sensitivity of kinase activity of immunoprecipitates of endogenous mTOR (mTOR) | sensitivity of kinase activity of recombinant myc-tagged mTOR (wt) [1] | effect on increase in mean cell size after emerging from confluence (HEK293T cells) | inhibition of S6K1 phosphorylation in actively growing cells (S6K1)
1 | O=c1cc(N2CCOCC2)oc2c(-c3ccccc3)cccc12 [LY294002] | sensitive | sensitive |  | 
2 | CO[C@H]1C[C@@H]2CC[C@@H](C)[C@@](O)(O2)C(=O)C(=O)N2CCCC[C@H]2C(=O)O[C@H]([C@H](C)C[C@@H]2CC[C@@H](O)[C@H](OC)C2)CC(=O)[C@H](C)/C=C(\C)[C@@H](O)[C@@H](OC)C(=O)[C@H](C)C[C@H](C)/C=C/C=C/C=C/1C [rapamycin] |  |  | dramatically reduced | completely inhibits S6K1 phosphorylation
